Data as given in US20140212423A1.
No constants are given. Whether binding was seen depends on the method and setting. Some entries that bind do so weakly or less than the wild type.

B1: DVD2671 (bispecific antibody)
VH: EVQLLESGGGLVQPGGSLRLSCAASGFTFSNYGMSWVRQAPGKGLEWVASIRSGGGRTYYSDNVKGRFTISRDNSKNTLYLQMNSLRAEDTAVYYCVRYDHYSGSSDYWGQGTLVTVSSASTKGPSVFPLAPEVQLVESGGGLVQPGNSLTLSCVASGFTFSNYGMHWIRQAPKKGLEWIAMIYYDSSKMNYADTVKGRFTISRDNSKNTLYLEMNSLRSEDTAMYYCAVPTSHYVVDVWGQGVSVTVSS
VL: DVVMTQSPLSLPVTPGEPASISCKSSQSLLDSDGKTYLNWLLQKPGQSPQRLIYLVSKLDSGVPDRFSGSGSGTDFTLKISRVEAEDVGVYYCWQGTHFPRTFGQGTKVEIKRTVAAPDIQMTQSPASLSASLEEIVTITCQASQDIGNWLAWYQQKPGKSPQLLIYGATSLADGVPSRFSGSRSGTQFSLKISRVQVEDIGIYYCLQAYNTPWTFGGGTKLELK
B2: AB405-SL-Aβ(3D6) (bispecific antibody)
VH: QVQLVQSGAEVKKPGASVKVSCKASGFTFSNYGMHWIRQAPGQGLEWIAMIYYDSSKMNYADTVKGRFTITRDNSTNTLYMELSSLRSEDTAVYYCAVPTSHYVVDVWGQGTTVTVSSASTKGPEVQLLESGGGLVQPGGSLRLSCAASGFTFSNYGMSWVRQAPGKGLEWVASIRSGGGRTYYSDNVKGRFTISRDNSKNTLYLQMNSLRAEDTAVYYCVRYDHYSGSSDYWGQGTLVTVSS
VL: EIVMTQSPATLSVSPGERATLSCQASQDIGNWLAWYQQKPGQSPRLLIYGATSLADGVPARFSGSRSGTEFTLTISSLQSEDFAVYYCLQAYNTPWTFGGGTKVEIKRTVAAPSVFIFPPDVVMTQSPLSLPVTPGEPASISCKSSQSLLDSDGKTYLNWLLQKPGQSPQRLIYLVSKLDSGVPDRFSGSGSGTDFTLKISRVEAEDVGVYYCWQGTHFPRTFGQGTKVEIKR
B3: Aβ(3D6)-GS-AB403 (bispecific antibody)
VH: EVQLLESGGGLVQPGGSLRLSCAASGFTFSNYGMSWVRQAPGKGLEWVASIRSGGGRTYYSDNVKGRFTISRDNSKNTLYLQMNSLRAEDTAVYYCVRYDHYSGSSDYWGQGTLVTVSSGGGGSGGGGSEVQLVESGGGLVQPGGSLRLSCAASGFTFSNYGMHWIRQAPGKGLEWIAMIYYDSSKMNYADTVKGRFTISRDNAKNSLYLQMNSLRAEDTAVYYCAVPTSHYVVDVWGQGTTVTVSS
VL: DVVMTQSPLSLPVTPGEPASISCKSSQSLLDSDGKTYLNWLLQKPGQSPQRLIYLVSKLDSGVPDRFSGSGSGTDFTLKISRVEAEDVGVYYCWQGTHFPRTFGQGTKVEIKRGGSGGGGSGEIVMTQSPATLSVSPGERATLSCQASQDIGNWLAWYQQKPGQSPRLLIYGATSLADGVPARFSGSRSGTEFTLTISSLQSEDFAVYYCLQAYNTPWTFGGGTKVEIKR

What was measured:
[1] = target: mouse Transferrin Receptor overexpressed on Hek 293 cells (mouse) (UniProt Q62351); test: MSD-ECL assay of Table 13
[2] = target: mouse Transferrin Receptor overexpressed on Hek 293 cells (mouse) (UniProt Q62351); test: 293/mTFR cell-based assay

Binder	binding [1]	binding [2]
B1	binds	–
B2	–	binds
B3	–	binds
